In this assay the target is OsLecRK5 (rice lectin receptor-like kinase), BiFC fusion (rice (Oryza sativa)). As to the kind of experiment: split reporter; BiFC with Yn (YFP 1-158) and Yc (YFP 155-239) fusions transiently expressed in Nicotiana benthamiana (tobacco) leaf mesophyll cells; fluorescence microscopy.

The results in this text go back to paper PMC7475243.

Results are given in words; binding and its absence hold for the method and conditions named. In cells and extracts the contact can be indirect. Some entries that bind do so weakly or less than the wild type. Tags and fused reporters may be left off the sequences shown.

B1: OsLecRK5 (rice lectin receptor-like kinase), BiFC fusion (receptor, UniProt A0A0P0VIP0 24-695)
chain: AAASSIAAAPASSYRRISWASNLTLLGSASLLPGAAGVALTTPSRDGVGAGRALFSEPVRLLLPQDAAASASASRAATPASFSTRFTFRITPSPTYGDGLAFLLTSSRTFLGASNGFLGLFPSSSASDEGELRDVSTVAVEIDTHLDVALHDPDGNHVALDAGSIFSVASAQPGVDLKAGVPITAWVEYRAPRRRLNVWLSYSPSRRPEKPALSADVDLSGLLRTYMYAGFSASNGNGAALHVVERWTFRTFGFPNSSYAPPPTKYIGPMPPNNQPLPPPPSPSPSPPPPSPPPPPHPNHRRRHLFYKVLGGVLGGMVLLGLVVVGSAVLLGRSVRRKNQEHAVASEDMGEATLSMEVARAATKGFDSGNVIGVGGSGATVYEGVLPSGSRVAVKRFQAIGSCTKAFDSELKAMLNCPHHPNLVPLAGWCRSKDELVLVYEFMPNGNLDSALHTLGGATLPWEARFRAVYGVASALAYLHDECENRIIHRDVKSSNVMLDAEFNARLGDFGLARTVSHGGLPLTTQPAGTLGYLAPEYVHTGVATERSDVYSFGVLALEVATGRRPAERGISVVNWVWTLWGRRRLVDAADRRLQGRFVADEMRRVLLVGLCCVHPDCRKRPGMRRVVSMLDGTAPLILVPDKMPPVLLQPVPNASSMNSADTANTAFFSCR
For the molecule B1, the binding result is recorded as “binds”.
